PubChem BioAssay AID1224826 | NIAID – 2016
Aim: 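Genes that change LPS-induced Tnf promoter activity in mouse macrophages when knocked down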 (primary screen). Cells: RAW264.7 G9 macrophages from mouse bearing reporters for p65 (GFP) and the Tnf promoter (mCherry). Reagent: siRNA pool against mouse genes, 100 nM. Duration: 16 h of LPS stimulation, after 2 days of siRNA transfection. Treatment: bacterial lipopolysaccharide (Salmonella minnesota R595), 10 ng/ml. Read-out: 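Nuclear mCherry signal of the Tnf promoter reporter measured by imaging after background removal, scaled to each plate median and turned into robust z-scores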. Scale: Tnf reporter robust z-score: higher = stronger Tnf promoter reporter signal after LPS. Active means: 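Called active when robust z-score is at most -1.3, matching the median of the Tlr4 knock-down control, or over 3; control wells and wells with under 50 cells never active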. Meaning of the calls: active = Tnf reporter clearly lowered or raised; inactive = no clear change in Tnf reporter.
In all, the deposit lists about 17,000 reagents; this is a part drawn at random. Of all reagents, about 1,110 (6.6%) got an active call. 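Active means lowered or raised reporter signal; replicate intensities are raw and not normalised per plate.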 Unmarked entries are inactive. Further read-outs or replicates are left out here.

Timm17a: Tnf reporter robust z-score = 0.98; fewer than 50 cells in well = enough cells in well
Grik3: Tnf reporter robust z-score = -0.26; fewer than 50 cells in well = enough cells in well
Vmn1r71: Tnf reporter robust z-score = 0.38; fewer than 50 cells in well = enough cells in well
Or13n4: Tnf reporter robust z-score = 0.37; fewer than 50 cells in well = enough cells in well
Cfap300: Tnf reporter robust z-score = 0.97; fewer than 50 cells in well = enough cells in well
Pcdhgc3: Tnf reporter robust z-score = 1.22; fewer than 50 cells in well = enough cells in well
Akt1s1: Tnf reporter robust z-score = -0.8; fewer than 50 cells in well = enough cells in well
Myo9b: Tnf reporter robust z-score = 0.76; fewer than 50 cells in well = enough cells in well
Use1: fewer than 50 cells in well = fewer than 50 cells per well; well left out of calls
Spag17os: Tnf reporter robust z-score = 1.98; fewer than 50 cells in well = enough cells in well
Tnni2: Tnf reporter robust z-score = 0.15; fewer than 50 cells in well = enough cells in well
Ubqln3: Tnf reporter robust z-score = -0.32; fewer than 50 cells in well = enough cells in well
Qtgal: Tnf reporter robust z-score = -1.05; fewer than 50 cells in well = enough cells in well
Cic: Tnf reporter robust z-score = -0.9; fewer than 50 cells in well = enough cells in well
Tmem116: Tnf reporter robust z-score = -1.87 (active); fewer than 50 cells in well = enough cells in well
Mycbpap: Tnf reporter robust z-score = 3.39 (active); fewer than 50 cells in well = enough cells in well
Eif2b1: Tnf reporter robust z-score = -0.11; fewer than 50 cells in well = enough cells in well
Tmem132d: Tnf reporter robust z-score = 0.94; fewer than 50 cells in well = enough cells in well
Trmt112: Tnf reporter robust z-score = -0.2; fewer than 50 cells in well = enough cells in well
Cybc1: Tnf reporter robust z-score = 0.21; fewer than 50 cells in well = enough cells in well
Astn2: Tnf reporter robust z-score = -1.06; fewer than 50 cells in well = enough cells in well
